# According to patent US20200239412A1, “NEW DERIVATES OF DHAA WITH ELECTROSTATIC TUNING” (priority 2017, published 2020):
# At least one compound was matched to its structure with a doubt left.
# Biological target: T1, hKv7.2/Kv7.3 (M-channel) (Homo sapiens, UniProt O43525+O43526)
# T1 construct: expressed in transfected cells; host or cells: Xenopus laevis oocytes (cRNAs mixed 1:1)
# Test: Two-electrode voltage clamp, G(V) shift on human M-channel expressed in Xenopus laevis oocytes
# Type: cell-based
# Details: pH 10, 100 μM, mean
# Description: Experiments were also made with the human hKv7.2/Kv7.3, referred to as the M-channel. cRNAs were mixed in a 1:1 molar ratio before injection into oocytes. hKv7.2 [GenBank Acc. No. NM_004518]. hKv7.3 [GenBank Acc. No NM_004519].
# 50 nl cRNA was injected into Xenopus laevis oocytes using a Nanoject injector (Drummond Scientific, Broomall, Pa.) and the oocytes were stored at 8° C. in a modified Barth's solution (MBS) before experiments (16° C., M-channel, 1-2 days). The MBS contained (in mM): 88 NaCl, 1 KCl, 2.4 NaHCO3, 15 HEPES, 0.33 Ca(NO3)2, 0.41 CaCl2), and 0.82 MgSO4, pH was adjusted to 7.5 by NaOH and the MBS was supplemented sodium pyruvate (2.5 mM). […]
# Currents were measured 1-6 days after cRNA injection using the two-electrode voltage clamp technique (GeneClamp 500B amplifier, Axon instruments). […] In the voltage protocol for the wt and 3R Shaker channel, holding potential was set to −80 mV and steady-state currents were measured at voltages between −80 and +50 mV (wt Shaker Kv channel) or +70 mV (3R Shaker Kv channel), using 5 mV increments, 100 ms. […] For the M-channel, holding potential was set to −100 mV, test-voltages were measured between −120 and +50 mV (10 mV increments for 2 s) and tail currents were measured at −30 mV. […]
# For the M channel tail currents were measured 18 ms after onset and then plotted against the test voltage. […]
compound,measurement,value
"CC(C)c1ccc2c(c1)CC[C@H]1[C@](C)(C(=O)O)CCC[C@]21C [DHAA, dehydroabietic acid]",G(V) shift,−11.63 mV
